Experimental data reported in article PMC8517208.
These are yes or no findings as the source states them, for the method shown. In cells and extracts the contact can be indirect. A yes stands for co-enrichment or nearness to the bait. Other partners may have been found. Where a sequence is shown, tags or fusion partners need not be part of it.

T1: murine EpCAM in fusion with yellow fluorescent protein (YFP) at the C-terminus, in mF9 cells (murine) (UniProt Q99JW5)
T1 sequence: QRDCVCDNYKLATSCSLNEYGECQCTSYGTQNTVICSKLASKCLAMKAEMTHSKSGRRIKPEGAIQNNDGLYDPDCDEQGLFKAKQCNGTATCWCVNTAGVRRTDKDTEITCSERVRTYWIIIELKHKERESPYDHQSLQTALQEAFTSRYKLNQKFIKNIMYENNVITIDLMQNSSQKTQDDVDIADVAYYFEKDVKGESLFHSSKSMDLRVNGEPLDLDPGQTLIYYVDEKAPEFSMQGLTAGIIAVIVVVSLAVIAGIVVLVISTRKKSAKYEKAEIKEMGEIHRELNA

B1: ER membrane protein complex subunit 2 (Emc2) (protein, UniProt Q9CRD2 1-297)
chain: MAKVTERYDVTWEEMRDKMRKWREENSRNSEQIMEVGEELINDYASKLGDDIWIIYEQVMIAALDYGRDDLALFCLQELRRQFPGSHRVKRLTGMRFEAMERYDDAIQLYDRILQEDPTNTAARKRKIAIRKAQGKTVEAIRELNEYLEQFVGDQEAWHELAELYINEHDYAKAAFCLEELMMTNPHNHLYCQQYAEVKYTQGGLENLELSRKYFAQALKLNNRNMRALFGLYMSASHIASNPKASAKMKKDNIKYASWAANQINRAYQFAGRSKKETKYSLKAVEDMLETLQITQS
B2: ATP synthase subunit f (protein, UniProt P56135 1-88)
chain: MASLVPLKEKKLMEVKLGELPSWIMMRDFTPSGIAGAFRRGYDRYYNKYINVRKGSISGISMVLAAYVVFSYCISYKELKHERRRKYH
B3: NADPH-cytochrome p450 reductase (protein, UniProt P37040 1-678)
chain: MGDSHEDTSATVPEAVAEEVSLFSTTDIVLFSLIVGVLTYWFIFKKKKEEIPEFSKIQTTAPPVKESSFVEKMKKTGRNIIVFYGSQTGTAEEFANRLSKDAHRYGMRGMSADPEEYDLADLSSLPEIDKSLVVFCMATYGEGDPTDNAQDFYDWLQETDVDLTGVKFAVFGLGNKTYEHFNAMGKYVDQRLEQLGAQRIFELGLGDDDGNLEEDFITWREQFWPAVCEFFGVEATGEESSIRQYELVVHEDMDTAKVYTGEMGRLKSYENQKPPFDAKNPFLAAVTTNRKLNQGTERHLMHLELDISDSKIRYESGDHVAVYPANDSTLVNQIGEILGADLDVIMSLNNLDEESNKKHPFPCPTTYRTALTYYLDITNPPRTNVLYELAQYASEPSEQEHLHKMASSSGEGKELYLSWVVEARRHILAILQDYPSLRPPIDHLCELLPRLQARYYSIASSSKVHPNSVHICAVAVEYEAKSGRVNKGVATSWLRTKEPAGENGRRALVPMFVRKSQFRLPFKPTTPVIMVGPGTGVAPFMGFIQERAWLREQGKEVGETLLYYGCRRSDEDYLYREELARFHKDGALTQLNVAFSREQAHKVYVQHLLKRDKEHLWKLIHEGGAHIYVCGDARNMAKDVQNTFYDIVAEFGPMEHTQAVDYVKKLMTKGRYSLDVWS
B4: Prohibitin-1 (protein, UniProt P67778 1-272)
chain: MAAKVFESIGKFGLALAVAGGVVNSALYNVDAGHRAVIFDRFRGVQDIVVGEGTHFLIPWVQKPIIFDCRSRPRNVPVITGSKDLQNVNITLRILFRPVASQLPRIYTSIGEDYDERVLPSITTEILKSVVARFDAGELITQRELVSRQVSDDLTERAATFGLILDDVSLTHLTFGKEFTEAVEAKQVAQQEAERARFVVEKAEQQKKAAIISAEGDSKAAELIANSLATAGDGLIELRKLEAAEDIAYQLSRSRNITYLPAGQSVLLQLPQ
B5: LINE-1 type transposase domain-containing protein 1 (protein, UniProt Q587J6 1-782)
chain: MSGVQSKAARLQKERKEKLSADRERKTATSLCLKHSEVPASMMKQFNALMEMQEVMFAEMRETYKNDIKEMLLKRTAPWVKHLEERIGQQEGDAISERPKPGEKVEELSSGTDEDTENLTVRSKKGKQDKAKPLNSSHVLKSSLERGGEALRGEHGRCGESSSLVDWKNANEKPAREASCQSEENRLKAPKESPPEGGAGATLRLAADFSAATLDVGRQWSQVFRLLKEKELEPELQCSVKLAFKCDGEANVFSDLHSLRQFTSRKPFLRELLKDVFPQNEGGRRNELRERLGKTLGDTKHEARRIASDSLSFLFIKEVEVASPEVKTYKEETLDRKNKGTLKKQEGEEEEISETQGEETSEGETSELGEEEGSESEEEEESSESEEEEESSESAEEIGFISLVVDSESEEEVNRKTASQTKKKETFHGLKELAFSYLVWDSKKKKLVRCQEGGAAAASTQRIGMPCLTLYLTSPSESLGAGSDGPKSHSCTKLSALSQVTPLLTNIEKGRYKVPQTEEPTAKEADLILETEENFKRGVISVIRQMQREVDKIKNIYVSDVLNMKSSLDDLNSLACTIEARVSEQEDAVEGLTKDTMQLAREIVDKERLREREDRFRSSNIRVIGIPEKENRENGAVDIIKEVIEENFAELEDQSLEIVSAHRVPNSVDEHRLTPRHILVKFGSASDKQRVLKASRAKQEITYRGSKIRLTADLSPGTIDARSQWCGIIKILQDEGFQPRILYPAKLAFDFKGKTKIFFDIEEFKKFISDIPYLKDLLNNIH
B6: Golgi-associated plant pathogenesis-related protein 2 (protein, UniProt Q9CYL5 1-154)
chain: MGKSASKQFNNEVLKAHNEYRAQHGVPPLKLCKKLNREAQQYSEALASTRILKHSPESSRGQCGENLAWASYDQTGKDVADRWYSEIKSYNFQQPGFTSGTGHFTAMVWKNTKKIGVGKASASDGSSFVVARYFPAGNIVNQGFFEENVPPPKK
B7: Emopamil binding protein (protein, UniProt P70245 1-230)
chain: MTTNTVPLHPYWPRHLKLDNFVPNDLPTSHILVGLFSISGGLIVITWLLSSRASVVPLGAGRRLALCWFAVCTFIHLVIEGWFSLYNGILLEDQAFLSQLWKEYSKGDSRYILSDSFVVCMETVTACLWGPLSLWVVIAFLRQQPFRFVLQLVVSMGQIYGDVLYFLTELHEGLQHGEIGHPVYFWFYFVFLNAVWLVIPSILVLDAIKHLTSAQSVLDSKVMKIKSKHN
B8: Cytochrome b5 type B (protein, UniProt Q9CQX2 12-146)
chain: KVEGSEPSVTYYRLEEVAKRNSAEETWMVIHGRVYDITRFLSEHPGGEEVLLEQAGADATESFEDVGHSPDAREMLKQYYIGDVHPSDLKPKGDDKDPSKNNSCQSSWAYWFVPIVGAILIGFLYRHFWADSKSS
B9: ATPase family AAA domain-containing protein 3 (protein, UniProt Q925I1-1 1-591)
chain: MSWLFGIKGPKGEGTGPPLPLPPAQPGAEGGGDRGAGDRPSPKDKWSNFDPTGLERAAKAARELEHSRHAKEALSLAQMQEQTLQLEQQSKLKEYEAAVEQLKSEQIRVQAEERRKTLTEETRQHQARAQYQDKLARQRYEDQLKQQQLLNEENLRKQEESVQKQEAIRRATVEREMELRHKNEMLRVEAEARARAKADRENADIIREQIRLKAAEHRQTILESIRTAGTLLGEGFRAFVTDWDKVTATVAGLTLLAVGVYSAKNATSVAGRYIEARLGKPSLVRETSRISVLEALRHPIQVSRRLVSRPQDALEGVILSPSLEARVRDIAIATRNTKKNKSLYRNVLMYGPPGTGKTLFAKKLALHSGMDYAIMTGGDVAPMGREGVTAMHKVFDWASTSRRGLLLFVDEADAFLRKRATEKISEDLRATLNAFLHRTGQHSSKFMLVLASNQPEQFDWAINDRIDEMVCFALPQREERERLVRMYFDKYVLKPATEGKQRLKVAQFDYGKKCSEVAQLTEGMSGREIAQLAVAWQAMAYSSEDGVLTEAMMDARVQDAVQQHQQKMQWLKVERPDSQTNKPPHPSLLSC
B10: Interferon-induced transmembrane protein 2 (protein, UniProt Q99J93 1-144)
chain: MSHNSQAFLSTNAGLPPSYETIKEEYGVTELGEPSNSAVVRTTVINMPREVSVPDHVVWSLFNTLFFNACCLGFVAYAYSVKSRDRKMVGDVVGAQAYASTAKCLNISSLIFSILMVIICIIIFSTTSVVVFQSFAQRTPHSGF
B11: Up-regulated during skeletal muscle growth protein 5 (protein, UniProt Q78IK2 1-58)
chain: MAGAESDGQFQFTGIKKYFNSYTLTGRMNCVLATYGGIALLVLYFKLRPKKTPAVKAT
B12: Exportin-T (protein, UniProt Q9CRT8 1-963)
chain: MDEQALLGLNPNADSDFRQRALAYFEQLKISPDAWQVCAEALAQKTYSDDHVKFFCFQVLEHQVKYKYSELSTAQQQLIRETLLSWLQAQMQNPQPEKTFIRNKAAQVFALLFVTEYLTKWPKFFFDILSVVDLNPRGVDLYLRILMAIDSELVDRDVVHTSEASGLENTLIKDTMREQCIPNLVESWYQILHNYQYTNSEVLCQCLEVVGAYVSWIDLSLIANDRFINMLLGHMSVEVLREEACDCLFEIVNKGMDPVDKMKLVESLCQVLQTAGFFSIDQEEDLDFVARFSKLVNGMGQSLIVSWTKLIKNGAVKNAQEALEAIETKVPLMLQLLVHEDDDISSNIIGFCYDYLHILKQLPVLSDQQKANVEAIMLAVMKKLTYDEEYNFENEGEDEAMFVEYRKQLKLLLDRLAQVSPELVLASVRRVFSATLQNWQTTRFMEVEVAVRLLYMLAEALPVSHGAHFSGDVSKASALQDMMRTLVTSGVSSYQHTSVTLEFFETVVRYEKFFTVEPQHIPCVLMAFLDHRGLWHSSAKVRSRTAYLFSRFVKSLNKQMNPYIEEILNRIQDLLALSPPENGYQSLLSSDDQLFIYETAGALIVNSEYPAENKQALMKDLLTPLMERFKVLLEKLMMAQDEERQASLADSLNHAVGFASRTSKAFSNKQTVKQCGCSQVYLDCLQTFLPALSCPLQKDVLRSGVRTFLHRMIICLEEEVLPFIPSASEHMLKDCEAKDLQEFIPLINQITAKFKMQVSPFLQQMFMPLLHAIFEVLLRPAEDNDQSAALEKQMLRRSYFAFLQTVTGSGMSEVIANQGAENVEQVLVTIIQGAVDYPDPIAQKTCFIILSKLVELWGGKDGPVGFADFVYKHIVPACFLAPLKQTFDLADAQTVLALSECAVTLKTIHLKRGPECVQYLQQEYLPSLQVAPEIIQEFCQALQQPDAKVFKNYLKVFFQRAKP
B13: Vesicle-associated membrane protein-associated protein A (protein, UniProt Q9WV55 1-249)
chain: MASASGAMAKHEQILVLDPPSDLKFKGPFTDVVTTNLKLQNPSDRKVCFKVKTTAPRRYCVRPNSGIIDPGSIVTVSVMLQPFDYDPNEKSKHKFMVQTIFAPPNISDMEAVWKEAKPDELMDSKLRCVFEMPNENDKLNDMEPSKAVPLNASKQDGPLPKPHSVSLNDTETRKLMEECKRLQGEMMKLSEENRHLRDEGLRLRKVAHSDKPGSTSAVSFRDNVTSPLPSLLVVIAAIFIGFFLGKFIL

biological target: T1, murine EpCAM in fusion with yellow fluorescent protein (YFP) at the C-terminus, in mF9 cells (murine); assay: affinity purification with mass spectrometry; SILAC: whole cell lysates of mF9 cells stably expressing EpCAM-YFP (heavy, Lys-8/Arg-10) or YFP (light); 3 or 7 mg lysate with 30 μL GFP-Trap agarose beads, 3 hrs, 4°C; washed in 0.2% tween in PBS; LC-MS/MS; three biological repeats; hits: enriched >3-fold over YFP, p ≤ 0.05, at least 2 unique peptides

binding	Binder
binds	B1
binds	B2
binds	B3
binds	B4
binds	B5
binds	B6
binds	B7
binds	B8
binds	B9
binds	B10
binds	B11
binds	B12
binds	B13
